Test results as given in the supplement of paper PMC7661543.
± gives the standard deviation of the averaged measurements. The effect of the compound repeats well; differences between the knockouts mostly do not.

Test system: SKBR3
Assay: relative cell number vs DMSO control (72 h) (% of DMSO); higher = less growth inhibition (more cells)
Description: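 QMAP-Seq: a pool of 5 breast cancer cell lines (ZR-75-1, SKBR3, HCC-38, MDA-MB-231, BT-20), each carrying 12 doxycycline-inducible Cas9 sgRNA perturbations (11 knockouts plus non-targeting sgNT), was treated with compounds for 72 h at four 10-fold doses (10 nM-10 uM or 1 nM-1 uM range). Barcodes were amplified and sequenced, and cell number was interpolated from 293T spike-in standard curves. The result is expressed as % of the median of DMSO wells. Two biological replicates.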

[1] = sgRNA knockout: sgATF3, 1000 nM
[2] = sgRNA knockout: sgATF3, 10000 nM
[3] = sgRNA knockout: sgATF4, 1000 nM
[4] = sgRNA knockout: sgATF4, 10000 nM
[5] = sgRNA knockout: sgATF6, 1000 nM
[6] = sgRNA knockout: sgATF6, 10000 nM
[7] = sgRNA knockout: sgATG7, 1000 nM
[8] = sgRNA knockout: sgATG7, 10000 nM
[9] = sgRNA knockout: sgERN1, 1000 nM
[10] = sgRNA knockout: sgERN1, 10000 nM
[11] = sgRNA knockout: sgHSF1, 1000 nM
[12] = sgRNA knockout: sgHSF1, 10000 nM
[13] = sgRNA knockout: sgHSF2, 1000 nM
[14] = sgRNA knockout: sgHSF2, 10000 nM
[15] = sgRNA knockout: sgKEAP1, 100 nM
[16] = sgRNA knockout: sgKEAP1, 1000 nM
[17] = sgRNA knockout: sgKEAP1, 10000 nM
[18] = sgRNA knockout: sgNFE2L2, 10 nM
[19] = sgRNA knockout: sgNFE2L2, 100 nM
[20] = sgRNA knockout: sgNFE2L2, 1000 nM
[21] = sgRNA knockout: sgNFE2L2, 10000 nM
[22] = sgRNA knockout: sgSLC35F2, 10 nM
[23] = sgRNA knockout: sgSLC35F2, 100 nM
[24] = sgRNA knockout: sgSLC35F2, 1000 nM
[25] = sgRNA knockout: sgSLC35F2, 10000 nM
[26] = sgRNA knockout: sgXBP1, 1000 nM
[27] = sgRNA knockout: sgXBP1, 10000 nM

Structure (SMILES): CC[C@H](C)C(=O)O[C@H]1C[C@@H](C)C=C2C=C[C@H](C)[C@H](CC[C@@H]3C[C@@H](O)CC(=O)O3)[C@H]21 [Lovastatin]
- relative cell number (sgRNA knockout: sgATF3, 10 nM): 108 ± 1.6
- relative cell number (sgRNA knockout: sgATF3, 100 nM): 91.7 ± 8.8
- relative cell number [1]: 103.75 ± 0.017
- relative cell number [2]: 82.9 ± 21
- relative cell number (sgRNA knockout: sgATF4, 10 nM): 108 ± 6.5
- relative cell number (sgRNA knockout: sgATF4, 100 nM): 75.9 ± 6.2
- relative cell number [3]: 90 ± 10
- relative cell number [4]: 84.7 ± 9.2
- relative cell number (sgRNA knockout: sgATF6, 10 nM): 87.2 ± 21
- relative cell number (sgRNA knockout: sgATF6, 100 nM): 71.2 ± 1.6
- relative cell number [5]: 88.6 ± 6.4
- relative cell number [6]: 85.2 ± 4.9
- relative cell number (sgRNA knockout: sgATG7, 10 nM): 95.9 ± 24
- relative cell number (sgRNA knockout: sgATG7, 100 nM): 82.69 ± 0.16
- relative cell number [7]: 108 ± 0.13
- relative cell number [8]: 80.6 ± 6.6
- relative cell number (sgRNA knockout: sgERN1, 10 nM): 107 ± 33
- relative cell number (sgRNA knockout: sgERN1, 100 nM): 93.2 ± 28
- relative cell number [9]: 103 ± 30
- relative cell number [10]: 89.3 ± 38
- relative cell number (sgRNA knockout: sgHSF1, 10 nM): 103 ± 1.3
- relative cell number (sgRNA knockout: sgHSF1, 100 nM): 76.4 ± 20
- relative cell number [11]: 86 ± 5
- relative cell number [12]: 84.1 ± 0.51
- relative cell number (sgRNA knockout: sgHSF2, 10 nM): 99 ± 16
- relative cell number (sgRNA knockout: sgHSF2, 100 nM): 69.1 ± 13
- relative cell number [13]: 85.1 ± 1.1
- relative cell number [14]: 74.9 ± 30
- relative cell number (sgRNA knockout: sgKEAP1, 10 nM): 98.1 ± 7.8
- relative cell number [15]: 78 ± 5.8
- relative cell number [16]: 93 ± 6.8
- relative cell number [17]: 71.2 ± 6.8
- relative cell number [18]: 84.3 ± 6.6
- relative cell number [19]: 83.2 ± 25
- relative cell number [20]: 94.9 ± 12
- relative cell number [21]: 86.6 ± 9.6
- relative cell number [22]: 93.4 ± 23
- relative cell number [23]: 85 ± 12
- relative cell number [24]: 109 ± 18
- relative cell number [25]: 77.9 ± 28
- relative cell number (sgRNA knockout: sgXBP1, 10 nM): 110.8 ± 0.86
- relative cell number (sgRNA knockout: sgXBP1, 100 nM): 83.3 ± 7
- relative cell number [26]: 114 ± 12
- relative cell number [27]: 98.2 ± 22

Structure (SMILES): CC(=O)Nc1nc(C)c(S(=O)(=O)Nc2ccc(C(O)(C(F)(F)F)C(F)(F)F)cc2)s1 [SR1001]
- relative cell number (sgRNA knockout: sgATF3, 10 nM): 132 ± 6
- relative cell number (sgRNA knockout: sgATF3, 100 nM): 103 ± 1.3
- relative cell number [1]: 130 ± 18
- relative cell number [2]: 102 ± 32
- relative cell number (sgRNA knockout: sgATF4, 10 nM): 107 ± 25
- relative cell number (sgRNA knockout: sgATF4, 100 nM): 101 ± 5.5
- relative cell number [3]: 106 ± 16
- relative cell number [4]: 114.7 ± 0.3
- relative cell number (sgRNA knockout: sgATF6, 10 nM): 101 ± 47
- relative cell number (sgRNA knockout: sgATF6, 100 nM): 82 ± 2.3
- relative cell number [5]: 95 ± 11
- relative cell number [6]: 124 ± 45
- relative cell number (sgRNA knockout: sgATG7, 10 nM): 93.8 ± 4.4
- relative cell number (sgRNA knockout: sgATG7, 100 nM): 92.1 ± 21
- relative cell number [7]: 103 ± 18
- relative cell number [8]: 99.8 ± 7.7
- relative cell number (sgRNA knockout: sgERN1, 10 nM): 117 ± 8.8
- relative cell number (sgRNA knockout: sgERN1, 100 nM): 114 ± 45
- relative cell number [9]: 142 ± 43
- relative cell number [10]: 118 ± 29
- relative cell number (sgRNA knockout: sgHSF1, 10 nM): 114 ± 9
- relative cell number (sgRNA knockout: sgHSF1, 100 nM): 79.2 ± 15
- relative cell number [11]: 123 ± 35
- relative cell number [12]: 116 ± 14
- relative cell number (sgRNA knockout: sgHSF2, 10 nM): 88.4 ± 27
- relative cell number (sgRNA knockout: sgHSF2, 100 nM): 89.6 ± 2.5
- relative cell number [13]: 114 ± 19
- relative cell number [14]: 118 ± 7.5
- relative cell number (sgRNA knockout: sgKEAP1, 10 nM): 108 ± 8.8
- relative cell number [15]: 88.6 ± 14
- relative cell number [16]: 111 ± 15
- relative cell number [17]: 110 ± 13
- relative cell number [18]: 106 ± 26
- relative cell number [19]: 106 ± 8.8
- relative cell number [20]: 101 ± 31
- relative cell number [21]: 137 ± 25
- relative cell number [22]: 101 ± 45
- relative cell number [23]: 105 ± 2.9
- relative cell number [24]: 106 ± 6.6
- relative cell number [25]: 88.3 ± 7.9
- relative cell number (sgRNA knockout: sgXBP1, 10 nM): 125 ± 40
- relative cell number (sgRNA knockout: sgXBP1, 100 nM): 98.1 ± 6.8
- relative cell number [26]: 122 ± 11
- relative cell number [27]: 123 ± 5.8

Structure (SMILES): COc1cc([C@@H]2c3cc4c(cc3[C@@H](O[C@@H]3O[C@@H]5CO[C@@H](C)O[C@H]5[C@H](O)[C@H]3O)[C@H]3COC(=O)[C@H]23)OCO4)cc(OC)c1O [Etoposide]
- relative cell number (sgRNA knockout: sgATF3, 10 nM): 71.8 ± 20
- relative cell number (sgRNA knockout: sgATF3, 100 nM): 68.6 ± 9.6
- relative cell number [1]: 26 ± 2.1
- relative cell number [2]: 18.1 ± 2.3
- relative cell number (sgRNA knockout: sgATF4, 10 nM): 55.8 ± 1.8
- relative cell number (sgRNA knockout: sgATF4, 100 nM): 69.6 ± 7.3
- relative cell number [3]: 26.6 ± 8.4
- relative cell number [4]: 14.3 ± 0.34
- relative cell number (sgRNA knockout: sgATF6, 10 nM): 61 ± 0.97
- relative cell number (sgRNA knockout: sgATF6, 100 nM): 63.7 ± 6.1
- relative cell number [5]: 30.1 ± 7
- relative cell number [6]: 8.206 ± 0.039
- relative cell number (sgRNA knockout: sgATG7, 10 nM): 72.77 ± 0.62
- relative cell number (sgRNA knockout: sgATG7, 100 nM): 61.8 ± 10
- relative cell number [7]: 25 ± 5.8
- relative cell number [8]: 15.2 ± 6.2
- relative cell number (sgRNA knockout: sgERN1, 10 nM): 59.7 ± 6.5
- relative cell number (sgRNA knockout: sgERN1, 100 nM): 75.3 ± 21
- relative cell number [9]: 23.9 ± 7.2
- relative cell number [10]: 8.42 ± 4.7
- relative cell number (sgRNA knockout: sgHSF1, 10 nM): 54.6 ± 2.2
- relative cell number (sgRNA knockout: sgHSF1, 100 nM): 68.3 ± 3.2
- relative cell number [11]: 27.8 ± 11
- relative cell number [12]: 9.83 ± 0.27
- relative cell number (sgRNA knockout: sgHSF2, 10 nM): 56.1 ± 19
- relative cell number (sgRNA knockout: sgHSF2, 100 nM): 74.3 ± 10
- relative cell number [13]: 37.1 ± 18
- relative cell number [14]: 15.2 ± 2.1
- relative cell number (sgRNA knockout: sgKEAP1, 10 nM): 58.7 ± 8.3
- relative cell number [15]: 69.1 ± 9.7
- relative cell number [16]: 20.5 ± 1.2
- relative cell number [17]: 11.6 ± 2
- relative cell number [18]: 59.1 ± 21
- relative cell number [19]: 65 ± 14
- relative cell number [20]: 26.5 ± 8.1
- relative cell number [21]: 11.6 ± 0.32
- relative cell number [22]: 68.4 ± 14
- relative cell number [23]: 74.3 ± 9.8
- relative cell number [24]: 32.9 ± 1.2
- relative cell number [25]: 10.11 ± 0.056
- relative cell number (sgRNA knockout: sgXBP1, 10 nM): 39.6 ± 17
- relative cell number (sgRNA knockout: sgXBP1, 100 nM): 62.8 ± 6.3
- relative cell number [26]: 28.9 ± 17
- relative cell number [27]: 13.1 ± 3.8
